Reference: PMC9756296
No constants are given. Whether binding was seen depends on the method and setting. Binding seen in cells or lysates may run through a third protein. Some binding calls cover weakened binding; strength is not graded here.

By UniProt entry, the sequences of proteins in these tests, tags left out.
UniProt Q03135: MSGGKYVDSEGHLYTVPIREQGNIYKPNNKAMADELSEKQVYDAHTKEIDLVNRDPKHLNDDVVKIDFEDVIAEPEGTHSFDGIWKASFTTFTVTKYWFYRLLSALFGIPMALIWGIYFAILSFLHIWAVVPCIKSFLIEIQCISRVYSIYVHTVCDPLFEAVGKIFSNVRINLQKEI
UniProt P09382: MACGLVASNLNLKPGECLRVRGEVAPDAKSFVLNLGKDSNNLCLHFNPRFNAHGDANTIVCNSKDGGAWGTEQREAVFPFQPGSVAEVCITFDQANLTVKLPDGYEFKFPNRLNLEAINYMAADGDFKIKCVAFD
UniProt P35222: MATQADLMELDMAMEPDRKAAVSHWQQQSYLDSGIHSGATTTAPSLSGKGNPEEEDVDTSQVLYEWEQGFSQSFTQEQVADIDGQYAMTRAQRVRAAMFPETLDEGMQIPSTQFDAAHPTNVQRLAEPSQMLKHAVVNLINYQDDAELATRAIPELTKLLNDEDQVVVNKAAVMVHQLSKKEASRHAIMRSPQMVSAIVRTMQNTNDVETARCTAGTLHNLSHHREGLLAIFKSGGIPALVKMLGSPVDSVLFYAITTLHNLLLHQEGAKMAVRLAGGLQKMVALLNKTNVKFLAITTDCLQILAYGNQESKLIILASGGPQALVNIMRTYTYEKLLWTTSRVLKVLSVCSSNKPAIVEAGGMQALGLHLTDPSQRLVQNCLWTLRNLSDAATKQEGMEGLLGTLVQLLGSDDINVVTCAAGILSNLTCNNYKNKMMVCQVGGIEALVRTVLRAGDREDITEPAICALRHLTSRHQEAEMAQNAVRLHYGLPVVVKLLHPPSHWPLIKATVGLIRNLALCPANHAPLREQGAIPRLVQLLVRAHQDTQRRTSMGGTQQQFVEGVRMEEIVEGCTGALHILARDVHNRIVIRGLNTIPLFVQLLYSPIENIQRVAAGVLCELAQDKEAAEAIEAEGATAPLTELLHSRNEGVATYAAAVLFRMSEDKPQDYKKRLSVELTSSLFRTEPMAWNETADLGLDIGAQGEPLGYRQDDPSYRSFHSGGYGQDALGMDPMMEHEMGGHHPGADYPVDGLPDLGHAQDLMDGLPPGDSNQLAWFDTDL

Target: caveolin-1 (human (endogenous in PMSCs)) (UniProt Q03135)
Experiment: co-IP; caveolin-1 immunoprecipitated from PMSC lipid raft isolates with 1 μg anti-caveolin-1 antibody (#7C8), 16 h at 4 °C; protein A/G-Sepharose beads 1 h at 4 °C; washed four times with PBS; Western blot for β-catenin, galectin-1 and caveolin-1; nonspecific mouse IgG as negative control

For galectin-1 (from UniProt P09382 1-135), the binding was “binds”.
β-catenin (from UniProt P35222 1-781) was tested, and the binding was “binds”.
